Measurements from doi:10.1101/2025.07.23.666473.
No constants are given. Whether binding was seen depends on the method and setting. In cells and extracts the contact can be indirect. Some entries that bind do so weakly or less than the wild type.

By UniProt entry, the sequences of proteins in these tests, tags left out.
UniProt P23242: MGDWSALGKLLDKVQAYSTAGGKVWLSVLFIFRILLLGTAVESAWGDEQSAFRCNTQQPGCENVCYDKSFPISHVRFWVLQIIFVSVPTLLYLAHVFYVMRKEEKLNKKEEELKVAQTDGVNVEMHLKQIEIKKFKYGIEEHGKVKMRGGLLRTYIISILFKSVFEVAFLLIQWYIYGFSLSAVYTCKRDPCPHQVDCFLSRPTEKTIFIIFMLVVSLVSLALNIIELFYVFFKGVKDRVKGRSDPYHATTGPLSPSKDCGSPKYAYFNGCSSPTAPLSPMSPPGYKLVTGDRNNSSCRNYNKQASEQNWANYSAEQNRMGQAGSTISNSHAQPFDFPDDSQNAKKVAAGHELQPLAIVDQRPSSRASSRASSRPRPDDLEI

Biological target: NaV1.5 (mouse (endogenous in heart)) (UniProt Q9JJV9)
Assay: co-IP

Connexin 43 (from UniProt P23242 1-382)
binding: binds
